The other results are listed elsewhere or left out.

Amino acid sequences for entries named in this document (tags omitted).
UniProt Q0JBA9, entry or part of it: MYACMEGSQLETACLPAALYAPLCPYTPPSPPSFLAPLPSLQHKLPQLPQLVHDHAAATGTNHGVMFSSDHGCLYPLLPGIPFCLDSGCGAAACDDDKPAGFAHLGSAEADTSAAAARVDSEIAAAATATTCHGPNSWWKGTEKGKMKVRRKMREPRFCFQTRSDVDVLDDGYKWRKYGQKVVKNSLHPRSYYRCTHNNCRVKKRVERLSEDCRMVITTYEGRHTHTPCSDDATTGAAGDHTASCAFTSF

The experiment has as its target OsWRKY34 (Oryza sativa, UniProt Q0JBA9 1-250). The experiment is described as follows: protein-binding microarray (RPBM); PBS, 2% BSA, 51.3 ng/ul salmon testes DNA, 50 uM zinc acetate, 200 nM TF, 25 C, 1 h; high values mean tight binding. The note with it: protein: recombinant; tags: N-terminal polyhistidine and DsRed monomer fusion (pET32a); label: CyDye5-dUTP incorporated in the synthesized complementary strand; 3' TTTTT single-stranded linker to array surface; dsDNA, one strand shown. In short, it runs like this: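 Binding signal here means per-feature fluorescence intensity in arbitrary units. The values were read on an Axon 4000B scanner after a custom Agilent array, double-stranded by primer extension with Cy5-dUTP, was incubated with 200 nM protein at 25 °C for 1 h in PBS with 2% BSA, salmon testes DNA and 50 µM zinc acetate, then washed. The proteins were transcription factors with an N-terminal polyhistidine tag and DsRed, expressed in E. coli BL21-CodonPlus and purified on Ni–NTA.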
In the case of “AATTAGATTTTCAGGGATTTATTTGTAAAATATTTTTTTTCGGAGTCACCTAGTGCAG”, the binding signal was 8950 fluorescence intensity (a.u.).
As to “TTTCATTTTTTTAGCTAATACTTGATTTCGTTGTTTCGTTCGGAGTCACCTAGTGCAG”, the binding signal was 10200 fluorescence intensity (a.u.).
As to “CAACTAAGGGGTATGTCTGCGCGCAAACGCTCGAATTTTTCGGAGTCACCTAGTGCAG”, the binding signal is 8440 fluorescence intensity (a.u.).
As for “ATCCCCGACTCGACCACCACCGCCGCCGCGCGCCATCGCCCGGAGTCACCTAGTGCAG”, the figure is 8310 fluorescence intensity (a.u.).
As for “ATTTTGTCTTACATGTTTGTGAAGTTATATATTTCATATTCGGAGTCACCTAGTGCAG”, the figure is 9220 fluorescence intensity (a.u.); as for “GGCAGAGCAGCATATCGATCTTAGAATTAGCTTTCAGTTCCGGAGTCACCTAGTGCAG”, 9190 fluorescence intensity (a.u.); as for “CTCATAATAGATTTACTTTTAATGCCGTTGTTTTGTTTTACGGAGTCACCTAGTGCAG”, 9090 fluorescence intensity (a.u.).
The value for “CTCCTCCTTCCCTATGCGCGCTCGCTGAGTTGCCGGCCATCGGAGTCACCTAGTGCAG” was 8590 fluorescence intensity (a.u.); that for “TGTGGGTTAATGTAGCACTTATGGCTAATTATGGACTAATCGGAGTCACCTAGTGCAG” was 8670 fluorescence intensity (a.u.); that for “ACGCCGCTCGCGCCCGCGGAGGGGAGGGGAGGGGAAGATCCGGAGTCACCTAGTGCAG” was 11700 fluorescence intensity (a.u.).
As to “AACACAAATCTTCCCCATTTTTTTTTTGTTCGCTTCCATCCGGAGTCACCTAGTGCAG”, the binding signal was 12900 fluorescence intensity (a.u.).
As for “ACTAGTACACACTTGCATCATTCACAGGTTGAGCCATCCACGGAGTCACCTAGTGCAG”, the figure is 8920 fluorescence intensity (a.u.).
Take “GTCTTTTGATGCGACGCGATGTGACTCGCCCGACCCAACTCGGAGTCACCTAGTGCAG”: the binding signal was 8940 fluorescence intensity (a.u.).
As to “AGGTGAGGTGGAGGAGGAGGAGGAGGAGGAGATCGGGATGCGGAGTCACCTAGTGCAG”, the binding signal is 8790 fluorescence intensity (a.u.).
Consider “CTCGTCGATCACCTCATCACCGTTTGTTTTGCAGGTGGCGCGGAGTCACCTAGTGCAG”, for which the binding signal is 8220 fluorescence intensity (a.u.).
The value for “TTCTAGCTTTTCTGTCACATGTCACATCGTTCCAATTTCACGGAGTCACCTAGTGCAG” was 9480 fluorescence intensity (a.u.).
The value for “ACGTGGCGATAGGACCCGCGCCTTCACTCAGCTGCTCGCTCGGAGTCACCTAGTGCAG” was 8630 fluorescence intensity (a.u.); that for “GATTGTATAGCGCCCGTCTCTCCTCTCGTCTCCTTGTTCTCGGAGTCACCTAGTGCAG” was 8490 fluorescence intensity (a.u.).
Take “GTCTATTAGAGCTCTAGTATTACTCACTGCAAATCTGTTACGGAGTCACCTAGTGCAG”: the binding signal is 8420 fluorescence intensity (a.u.).
As to “CTCTCTCTCTCTCTCTCTCTCTCTCTCTCTCTCTCTCTCTCGGAGTCACCTAGTGCAG”, the binding signal was 9100 ± 325 fluorescence intensity (a.u.).
The value for “CCCGGTCGCCTTATTTTATTTTAAAAAGCCCATGATTTCTCGGAGTCACCTAGTGCAG” was 9430 fluorescence intensity (a.u.); that for “CCTCTTAACTCTTTCCCATTCCCAAATGCGCCACTGTCTCCGGAGTCACCTAGTGCAG” was 9190 fluorescence intensity (a.u.); that for “GCAGAGAGAGGGGAGGAGGGTGGGTGGCGGCGGCGGCTAGCGGAGTCACCTAGTGCAG” was 14400 fluorescence intensity (a.u.).
As for “CACATGGCATACTCTCTTTTTATTTCTCTTTTCATTTTTTCGGAGTCACCTAGTGCAG”, the figure is 13900 fluorescence intensity (a.u.); as for “GTACATCACTTTCCCAGAATTCTACTTTGACCCTTCTTGGCGGAGTCACCTAGTGCAG”, 8180 fluorescence intensity (a.u.); as for “TCTCTCGGTCTTTACATTATTGGTGATTGTCTTATATTTTCGGAGTCACCTAGTGCAG”, 12300 fluorescence intensity (a.u.).
Consider “GTGATGTTCATGCGACAATGTGTTTCTTCCTGGACATATTCGGAGTCACCTAGTGCAG”, for which the binding signal is 8050 fluorescence intensity (a.u.).
“CCCTCATCGCCGCCGTCCTCACCTCACCGCCGGCCAAGCCCGGAGTCACCTAGTGCAG”: the binding signal is 9330 fluorescence intensity (a.u.).
The value for “TACCTCCTCATTGCCTCGCCGTCCACCGACTTCGCCGCCACGGAGTCACCTAGTGCAG” was 8150 fluorescence intensity (a.u.); that for “GCTGTGTACCTGAATTGAGAGGACCCTTGTTTTTGTTAGACGGAGTCACCTAGTGCAG” was 9790 fluorescence intensity (a.u.); that for “TCTCGCCTCAACGCTTTCCAATTCCACCCCGACTTGCTGACGGAGTCACCTAGTGCAG” was 9330 fluorescence intensity (a.u.).
Regarding “TCCAAGGACACTAACATTTGTTGTCTCACCTGTTCTTTTCCGGAGTCACCTAGTGCAG”, the binding signal is 8990 fluorescence intensity (a.u.).
Regarding “GACCGAGAGCGCACAAGGCTTTCTTCTCTCCATCTTCGCTCGGAGTCACCTAGTGCAG”, the binding signal is 9200 fluorescence intensity (a.u.).
With “CAGTACGTCCTGTGGTCGGGGTCTAAGATCATATTTTTCGCGGAGTCACCTAGTGCAG”, the binding signal is 8490 fluorescence intensity (a.u.).
For “CGTGAGAGGAGAGGGGAGGGTTGTCAACCGTGAGAATTGCCGGAGTCACCTAGTGCAG”, the binding signal was 10000 fluorescence intensity (a.u.).
As for “GGAGGCGGAGGCCGCCGCTTTGAAGGGCGGGAGGGGCGTTCGGAGTCACCTAGTGCAG”, the figure is 12400 fluorescence intensity (a.u.); as for “TGTGTTTGATCAATCAGCTCCAAACTTTCGTTATTTATTTCGGAGTCACCTAGTGCAG”, 9990 fluorescence intensity (a.u.).
As for “CTCACCCGACGCTCCGTGCCCCGACGTTCCTCCACGATTACGGAGTCACCTAGTGCAG”, the binding signal is 9820 fluorescence intensity (a.u.).
Regarding “CATTTTCCGCGATCCGTTGGAACCGACTTCTCATCAAATGCGGAGTCACCTAGTGCAG”, the binding signal was 11100 fluorescence intensity (a.u.).
As for “CAGTCAACTCGCCGGTCTGAATAAGTTACTACATGCTGAACGGAGTCACCTAGTGCAG”, the figure is 8600 fluorescence intensity (a.u.).
As for “TGTCATCGTCGTCACCTTGTCAGTTGGCGCTGGATCCGCACGGAGTCACCTAGTGCAG”, the figure is 10800 fluorescence intensity (a.u.).
As for “TTGGTGAACATACACTCCTTTTCTCCTTTTTCTTTTTATTCGGAGTCACCTAGTGCAG”, the binding signal was 11000 fluorescence intensity (a.u.).

The record behind these values is paper PMC7819943, “Rice protein-binding microarrays: a tool to detect cis-acting elements near promoter regions in rice”.
